Experimental data published in the supplement of paper PMC7877785.
± gives the uncertainty stated by the source. Many entries were measured with a wide error.

Test: self-splicing fitness, log relative to wild type (ln ratio); higher = more splicing; Tetrahymena group I intron in knt gene, E. coli kanamycin selection, DiMSum; sequences stand for … in CUCUCU…GGAGGGAAAAGUUAUCAGGCAUGCACCUGGUAGCUAGUCUUUAAACCAAUAGAUUGCAUCGGUUUAAAAGGCAAGACCGUCAAAUUGCGGGAAAGGGGUCAACAGCCGUUCAGUACCAAGUCUCAGGGGAAACUUUGAGAUGGCCUUGCAAAGGGUAUGGUAAUAAGCUGACGGACAUGGUCCUAACCACGCAGCCAAGUCCUAAGUCAACAGAUCUUCUGUUGAUAUGGAUGCAGUUCACAGACUAAAUGUCGGUCGGGGAAGAUGUAUUCUUCUCAUAAGAUAUAGUCGGACCUCUCCUUAAUGGGAGCUAGCGGAUGAAGUGAUGCAACACUGGAGCCGCUGGGAACUAAUUUGUAUGCGAAAGUAUAUUGAUUAGUUUUGGAGUACUCGUGGUCG
How it was run: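 Fitness was computed with DiMSum as the error-weighted combination of replicate fold changes, kanamycin versus none, each normalised to wild type. The library randomised all eight intron nucleotides of the P1ex region, with the intron placed in the knt kanamycin-resistance gene on pET-22b(+) in E. coli BL21(DE3). Six replicate transformations were grown overnight at 37°C or 30°C on LB agar with or without 25 μg/mL kanamycin, plus 100 μg/mL carbenicillin, 50 μM IPTG and 0.2% rhamnose. Pooled colonies were amplicon-sequenced on an Illumina HiSeq 2500.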

CUUGAGCAAUAUUACGCCGG
self-splicing fitness (ln) (30 °C): -4.04 ± 0.46 | self-splicing fitness (ln) (37 °C): -1.65 ± 0.47

UCGCAGCAAUAUUACGACUG
self-splicing fitness (ln) (30 °C): -1.93 ± 0.14 | self-splicing fitness (ln) (37 °C): -2.7 ± 0.25

GCGGAGCAAUAUUACGCCGU
self-splicing fitness (ln) (37 °C): -2.7 ± 0.77

AGGAAGCAAUAUUACGCUGA
self-splicing fitness (ln) (30 °C): -2.96 ± 0.23 | self-splicing fitness (ln) (37 °C): -1.97 ± 0.22

UUUGAGCAAUAUUACGGAAG
self-splicing fitness (ln) (30 °C): -2.95 ± 0.69

UAUUAGCAAUAUUACGAGAU
self-splicing fitness (ln) (30 °C): -4.42 ± 0.74

CGGGAGCAAUAUUACGAACA
self-splicing fitness (ln) (30 °C): -2.97 ± 0.75

CUACAGCAAUAUUACGCUUC
self-splicing fitness (ln) (30 °C): -4.57 ± 0.51

UAGGAGCAAUAUUACGUGGC
self-splicing fitness (ln) (30 °C): -3.35 ± 0.6

CCUGAGCAAUAUUACGCACC
self-splicing fitness (ln) (30 °C): -4.56 ± 1

UUUCAGCAAUAUUACGGCAU
self-splicing fitness (ln) (30 °C): -1.87 ± 0.16 | self-splicing fitness (ln) (37 °C): -1.08 ± 0.19

UCGGAGCAAUAUUACGCAAA
self-splicing fitness (ln) (30 °C): -3.78 ± 0.6 | self-splicing fitness (ln) (37 °C): -2.06 ± 0.67

AGUAAGCAAUAUUACGAUGU
self-splicing fitness (ln) (30 °C): -3.05 ± 0.15 | self-splicing fitness (ln) (37 °C): -1.17 ± 0.13

UGGAAGCAAUAUUACGCAUG
self-splicing fitness (ln) (30 °C): -1.02 ± 0.096 | self-splicing fitness (ln) (37 °C): -0.486 ± 0.12

CCGCAGCAAUAUUACGAACC
self-splicing fitness (ln) (37 °C): -1.37 ± 0.69

GCGAAGCAAUAUUACGUUUC
self-splicing fitness (ln) (37 °C): -4.45 ± 0.72

UUAUAGCAAUAUUACGAGUU
self-splicing fitness (ln) (30 °C): -4.08 ± 0.51

UCGGAGCAAUAUUACGUAAC
self-splicing fitness (ln) (37 °C): -1.9 ± 0.57

UUGGAGCAAUAUUACGAGCU
self-splicing fitness (ln) (37 °C): 0.000402 ± 1.2

UGUGAGCAAUAUUACGUCUC
self-splicing fitness (ln) (37 °C): -3.16 ± 0.74

CCUGAGCAAUAUUACGGCGC
self-splicing fitness (ln) (37 °C): -3.16 ± 0.52

GUGUAGCAAUAUUACGCGCU
self-splicing fitness (ln) (30 °C): -5.43 ± 1

UGAGAGCAAUAUUACGGCGC
self-splicing fitness (ln) (30 °C): -1.32 ± 0.71 | self-splicing fitness (ln) (37 °C): -2.04 ± 0.65

GGCUAGCAAUAUUACGUCGC
self-splicing fitness (ln) (30 °C): -1.5 ± 0.28 | self-splicing fitness (ln) (37 °C): -0.438 ± 0.22

UCGUAGCAAUAUUACGACCA
self-splicing fitness (ln) (37 °C): -1.13 ± 0.51

UAGCAGCAAUAUUACGAGGC
self-splicing fitness (ln) (30 °C): -4.96 ± 0.51

UAGGAGCAAUAUUACGAUGU
self-splicing fitness (ln) (30 °C): -3.42 ± 0.73

GCUAAGCAAUAUUACGCUCC
self-splicing fitness (ln) (30 °C): -1.01 ± 0.13 | self-splicing fitness (ln) (37 °C): -1.07 ± 0.18

CGGGAGCAAUAUUACGGUUU
self-splicing fitness (ln) (30 °C): -4.4 ± 0.59 | self-splicing fitness (ln) (37 °C): -1.19 ± 0.32

UUGGAGCAAUAUUACGCUUG
self-splicing fitness (ln) (30 °C): -2.69 ± 0.3 | self-splicing fitness (ln) (37 °C): -1.25 ± 0.27

GGUAAGCAAUAUUACGUAGC
self-splicing fitness (ln) (37 °C): 0.125 ± 0.52

UGUCAGCAAUAUUACGGAGC
self-splicing fitness (ln) (30 °C): -1.16 ± 0.59

GCGGAGCAAUAUUACGGGCA
self-splicing fitness (ln) (30 °C): -2.62 ± 0.64

UUCCAGCAAUAUUACGCCCC
self-splicing fitness (ln) (37 °C): -0.731 ± 0.56

UUUGAGCAAUAUUACGUUAG
self-splicing fitness (ln) (30 °C): -3.12 ± 1.1

UCAUAGCAAUAUUACGGGCU
self-splicing fitness (ln) (30 °C): -3.79 ± 0.52

UUGUAGCAAUAUUACGCUCC
self-splicing fitness (ln) (37 °C): -1.68 ± 0.7

CUCAAGCAAUAUUACGGCUA
self-splicing fitness (ln) (30 °C): -2.87 ± 0.62

GCGUAGCAAUAUUACGCAAU
self-splicing fitness (ln) (30 °C): -4.66 ± 1 | self-splicing fitness (ln) (37 °C): -3.11 ± 0.74

AUUGAGCAAUAUUACGUCGU
self-splicing fitness (ln) (30 °C): -1.59 ± 0.15 | self-splicing fitness (ln) (37 °C): -1.69 ± 0.17

UGUCAGCAAUAUUACGAAAC
self-splicing fitness (ln) (30 °C): -3.79 ± 0.59

UCGAAGCAAUAUUACGAUCC
self-splicing fitness (ln) (30 °C): -3.63 ± 1 | self-splicing fitness (ln) (37 °C): -1.39 ± 1.2

GUGGAGCAAUAUUACGAAUU
self-splicing fitness (ln) (30 °C): -3.77 ± 0.75

UGGCAGCAAUAUUACGAGAU
self-splicing fitness (ln) (37 °C): -2.3 ± 0.55

ACUGAGCAAUAUUACGCGUA
self-splicing fitness (ln) (30 °C): -1.8 ± 0.15 | self-splicing fitness (ln) (37 °C): -3.16 ± 0.28

AAUGAGCAAUAUUACGCCGC
self-splicing fitness (ln) (30 °C): -2.95 ± 0.54

GUUGAGCAAUAUUACGAGCU
self-splicing fitness (ln) (30 °C): -5.02 ± 1 | self-splicing fitness (ln) (37 °C): -3.09 ± 0.74

CCGGAGCAAUAUUACGCAUA
self-splicing fitness (ln) (30 °C): -2.87 ± 1.1 | self-splicing fitness (ln) (37 °C): -2.05 ± 0.5

AGUGAGCAAUAUUACGCAGC
self-splicing fitness (ln) (37 °C): -1.65 ± 0.84

AGAGAGCAAUAUUACGCGCC
self-splicing fitness (ln) (37 °C): -2.09 ± 0.52

GUGUAGCAAUAUUACGGCAC
self-splicing fitness (ln) (37 °C): -0.727 ± 0.77

GGUGAGCAAUAUUACGAAGG
self-splicing fitness (ln) (30 °C): -3.59 ± 0.6

AGAGAGCAAUAUUACGUCCA
self-splicing fitness (ln) (30 °C): -3.28 ± 0.74 | self-splicing fitness (ln) (37 °C): -1.21 ± 0.76

UCAGAGCAAUAUUACGUAAC
self-splicing fitness (ln) (37 °C): -2.94 ± 0.75

UCCUAGCAAUAUUACGGGUA
self-splicing fitness (ln) (30 °C): -0.468 ± 0.088 | self-splicing fitness (ln) (37 °C): -0.134 ± 0.12

UGCAAGCAAUAUUACGGAGC
self-splicing fitness (ln) (30 °C): -4.28 ± 0.6 | self-splicing fitness (ln) (37 °C): -3.25 ± 0.6

UACAAGCAAUAUUACGCCCC
self-splicing fitness (ln) (37 °C): -2.82 ± 0.62

ACUUAGCAAUAUUACGAGUC
self-splicing fitness (ln) (30 °C): -4.93 ± 0.59

UAUGAGCAAUAUUACGGGGA
self-splicing fitness (ln) (37 °C): -2.46 ± 0.55

AUUAAGCAAUAUUACGAGGG
self-splicing fitness (ln) (30 °C): -4.25 ± 0.51

CGUUAGCAAUAUUACGUGAC
self-splicing fitness (ln) (30 °C): -3.39 ± 0.79 | self-splicing fitness (ln) (37 °C): -1.13 ± 1.2
